In the assay the target is T1, Ornithine decarboxylase (Rattus norvegicus, UniProt P09057).
T1 sequence (P09057 whole entry): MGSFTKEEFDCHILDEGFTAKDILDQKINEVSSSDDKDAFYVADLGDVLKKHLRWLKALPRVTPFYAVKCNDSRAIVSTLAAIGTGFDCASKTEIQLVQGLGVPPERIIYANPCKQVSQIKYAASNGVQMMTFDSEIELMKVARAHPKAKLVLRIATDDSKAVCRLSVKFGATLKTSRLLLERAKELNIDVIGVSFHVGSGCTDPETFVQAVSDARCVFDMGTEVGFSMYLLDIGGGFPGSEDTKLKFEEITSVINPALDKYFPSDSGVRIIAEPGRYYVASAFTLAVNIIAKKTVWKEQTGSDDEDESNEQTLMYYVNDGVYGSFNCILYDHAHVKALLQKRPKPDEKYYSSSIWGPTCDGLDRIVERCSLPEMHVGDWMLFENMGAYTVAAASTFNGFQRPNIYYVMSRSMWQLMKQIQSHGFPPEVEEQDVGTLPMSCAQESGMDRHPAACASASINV
The assay is described as follows: In vitro inhibition against ornithine decarboxylase. The essentials: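 Time-dependent inactivation of partially purified rat liver ODC (thioacetamide-induced, acid treatment at pH 4.6). Enzyme incubated at 37 °C in 30 mM phosphate pH 7.1, 5 mM DTT and 0.1 mM pyridoxal phosphate with varied inhibitor concentrations. Aliquots were assayed at intervals. Half-inactivation times were plotted against 1/[I] (Kitz–Wilson, least-squares fit) to give apparent K_I and τ1/2.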

On to `C#CC(N)CC(F)(F)CN` (stereo unspecified), for which the Ki – broadly, a measure of affinity in units of concentration, obtained from inhibition or displacement – was determined as 10 µM.

(Values after ChEMBL document CHEMBL1124320, “2,2-Difluoro-5-hexyne-1,4-diamine: a potent enzyme-activated inhibitor of ornithine decarboxylase” (J Med Chem, 1989).)
